Measurements published in PubChem BioAssay AID504467 (National Center for Advancing Translational Sciences (NCATS), 2011).
About 7,700 (2.3%) of roughly 330,000 compounds were called active. Inconclusive results, whose numbers are uncertain, are shown with a selection of clear calls. The call rests on the fitted dose curve; in most records, active means well fitted inhibition curve with a large enough effect; inconclusive means small, poorly fitted or top-dose-only effect, or effect the other way; inactive means flat fitted curve, though single readings scatter. Where the call is inconclusive, the potency comes from a doubtful curve fit.

Assay: qHTS screen for small molecules that inhibit ELG1-dependent DNA repair in human embryonic kidney (HEK293T) cells expressing luciferase-tagged ELG1; further: nearly all actives have a fitted effect of over 55% in size
Settings: HEK293T ELG1-luciferase reporter, luminescence, 16 h, DNA damage induced by 5-fluorouridine; series mostly up to 46.1 µM
Summary of the method: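 Quantitative HTS, concentration-response format. 2,000 cells/well co-treated with 5-fluorouridine and compound, 16 hr in 5% CO2 at 37 °C; ONE-Glo luminescence read after 30 min.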
Potency means the concentration at half of the fitted maximal effect.

Compound | Potency
Cc1ccc(C(=O)CSc2nsc(C)c2C#N)cc1 | inconclusive: 13 µM [activator, partial curve]
Cc1ccc(CSCC(=O)N(C)CC(=O)Nc2c(Cl)cccc2Cl)cc1 | inconclusive: 23.1 µM [inhibitor, single point]
Cc1cccc(OCC(=O)Nc2ccccc2F)c1 | inconclusive: 18.3 µM [activator, partial curve]
O=C(O)C1CC=CCC1C(=O)Nc1ccc2c(c1)OCCO2 (configuration not stated) | inconclusive: 18.4 µM [activator, single point]
CN(C(=O)c1ccc(-c2nn(C)c(=O)c3ccccc23)cc1)c1ccccc1 | inconclusive: 29.1 µM [inhibitor, single point]
O=C(CC1SCCNC1=O)Nc1cccc(C(F)(F)F)c1 (configuration not stated) | inconclusive: 18.4 µM [activator, single point]
CNc1oc(Cc2ccccc2)nc1S(=O)(=O)c1ccccc1 | inactive
NC(=NCCc1ccc(Cl)cc1)NS(=O)(=O)c1ccc(F)cc1 | inconclusive: 20.6 µM [inhibitor, partial curve, poor fit]
CCCc1cc(=O)oc2c3c(c4c(c12)OC(C)(C)C=C4)OC(C)C(C)C3O (configuration not stated) | inconclusive: 32.6 µM [inhibitor, partial curve, poor fit]
COCCN(CC(=O)NC1CCCCC1)C(=O)/C=C/C(=O)c1ccc(OC)cc1O | inactive
COc1ccc(S(=O)(=O)NCC(c2cccnc2)N2CCN(c3ccc(F)cc3)CC2)cc1C (configuration not stated) | inconclusive: 20.6 µM [inhibitor, partial curve]
Cc1ccc(SCCc2ccc(C)nc2)cc1 | inconclusive: 16.4 µM [activator, single point]
CC(=O)N1c2ccc(F)c(F)c2C[C@H]1C | inconclusive: 32.6 µM [activator, partial curve, poor fit]
COc1ccc(-c2c(C)nc3c(-c4ccsc4)cnn3c2N)cc1 | inconclusive: 2.31 µM [activator, full curve]
O=C1CSC(c2ccc([N+](=O)[O-])cc2)N1c1ccc(O)cc1 (configuration not stated) | inconclusive: 0.184 µM [inhibitor, single point]
CCOc1ccc(S(=O)(=O)NCCC(=O)OCC(=O)Nc2cc(C)on2)cc1 | inconclusive: 25.9 µM [activator, partial curve, poor fit]
C/C(=N\N=C(c1ccccc1)c1ccccc1)c1ccco1 | inactive
COc1ccc(S(=O)(=O)c2c(N)n(Cc3ccco3)c3nc4ccccc4nc23)cc1 | inconclusive: 25.9 µM [inhibitor, partial curve, poor fit]
COc1ccc(CN(C)C(C)C(=O)Nc2ccc(S(=O)(=O)N3CCCC3)cc2)c(OC)c1OC (configuration not stated) | inconclusive: 5.8 µM [inhibitor, full curve]
Cc1ccc(C(=O)NCC(=O)OC(C)C(=O)NC2CCCc3ccccc32)cc1 (configuration not stated) | inactive
Cc1ccc(-c2cn3cc([N+](=O)[O-])ccc3n2)cc1 | inconclusive: 0.184 µM [activator, partial curve]

Compound | Potency
CC1(C)N=C(N)N=C(N)N1c1cccc(C(=O)O)c1 | inconclusive: 32.6 µM [activator, partial curve, poor fit]
COc1cccc(CNC(=O)Cn2ccc3cc(S(=O)(=O)N4CCCCCC4)ccc32)c1OC | inconclusive: 29.1 µM [inhibitor, single point]
CCCCNC(=O)Nc1ccc(Br)cn1 | inconclusive: 18.4 µM [activator, single point]
COc1ccc(S(=O)(=O)N2CC(C)N(C(=O)N3CCOCC3)C2)cc1 (configuration not stated) | inactive
Nc1c(C(=O)NC2CCCC2)sc2nc(-c3cccs3)ccc12 | inconclusive: 3.66 µM [activator, partial curve]
O=C(COc1ccc(Cl)cc1)Nc1ccc(NC(=O)c2ccco2)cc1 | inconclusive: 18.3 µM [activator, single point]
COc1cc(NC(=O)COc2ccccc2Cl)ccc1NC(=O)C(C)C | inconclusive: 29.1 µM [inhibitor, partial curve, poor fit]
Cc1sc2nc(SCc3ccc(C(=O)O)cc3)n(Cc3ccco3)c(=O)c2c1C | inconclusive: 29.1 µM [inhibitor, partial curve, poor fit]
Cc1cn(-c2cc(C(=O)Nc3ccc(C)c(NC(=O)C(=O)c4c[nH]c5ccccc45)c3)cc(C(F)(F)F)c2)cn1 | inconclusive: 1.64 µM [inhibitor, full curve]
O=C(Cc1ccc(Cl)cc1)Nc1ccc(NC(=O)c2ccccc2)cc1 | inactive
CC1=NN(C(N)=S)C(=O)C1N=Nc1ccc([N+](=O)[O-])cc1 (configuration not stated) | inconclusive: 20.6 µM [activator, partial curve]
CC1CCCN(S(=O)(=O)c2ccc3[nH]c4c(c3c2)CCCC4)C1 (configuration not stated) | inactive
CC1(C)CC(=O)c2cc(OCC(=O)N3CCCCCC3)ccc2O1 | inconclusive: 18.4 µM [activator, partial curve]
c1ccc([C@H]2CN3C(=N2)Sc2ccccc23)cc1 | inconclusive: 0.517 µM [activator, full curve, poor fit]
CCc1ccc(/C=N/NC(=O)c2c[nH]c3ccccc23)s1 | inconclusive: 9.2 µM [activator, partial curve, poor fit]
CCOC(=O)N1CCN(C(=S)NC(=O)c2cncc(Br)c2)CC1 | inactive
COc1ccc(-n2nc(C(=O)NCC(=O)N3CCN(Cc4ccc5c(c4)OCO5)CC3)c3ccccc3c2=O)cc1OC | inconclusive: 25.9 µM [inhibitor, single point]
CCOC(=O)C(Cc1ccc(NC(=O)/C(=C/c2ccccc2)NC(=O)c2ccccc2)cc1)N1C(=O)c2ccccc2C1=O (configuration not stated) | inactive
O=C(Nc1nc(-c2ccccc2)cs1)C1CCCCN1S(=O)(=O)c1ccc(Cl)cc1 (configuration not stated) | inconclusive: 23.1 µM [inhibitor, single point]
CCSc1nc2nn(-c3ccccc3)c(=O)c-2c2n1CCCCC2 | inactive
CC(=O)c1sc(NC(=O)C2CCN(C(=O)c3ccc(F)cc3)CC2)nc1-c1ccccc1 | inconclusive: 20.6 µM [inhibitor, single point]

A few values from the list.
Cc1ccc(C(=O)NCC(=O)OC(C)C(=O)NC2CCCc3ccccc32)cc1 (configuration not stated) | Potency: inactive
Cc1cn(-c2cc(C(=O)Nc3ccc(C)c(NC(=O)C(=O)c4c[nH]c5ccccc45)c3)cc(C(F)(F)F)c2)cn1 | Potency: inconclusive: 1.64 µM [inhibitor, full curve]
NC(=NCCc1ccc(Cl)cc1)NS(=O)(=O)c1ccc(F)cc1 | Potency: inconclusive: 20.6 µM [inhibitor, partial curve, poor fit]
